In patent US20220381787A1, “NOVEL LOX-1 ANTIBODY COMPOSITIONS, LOX1 NEUTRALIZATION ASSAY AND METHODS OF TREATMENT USING SAME” (The Wistar Institute of Anatomy and Biology, priority 2019, published 2022):
No constants are given. Whether binding was seen depends on the method and setting. Some results given as binding are weak or reduced against the parent protein; the word gives no strength.

How the values were obtained:
[1] = target: recombinant human LOX-1 (hLOX-1) protein, full length (human) (UniProt P78380); experiment: Western blot, native recombinant hLOX-1
[2] = target: recombinant human LOX-1 (hLOX-1) protein, full length (human) (UniProt P78380); experiment: avidity ELISA (4M urea) and Western blot on recombinant hLOX-1
[3] = target: recombinant human LOX-1 (hLOX-1) protein, full length (human) (UniProt P78380); experiment: modified ELISA on recombinant hLOX-1, avidity by 4M urea wash
[4] = target: human LOX-1 expressed on the surface of plasmid hLOX-1 transfected 293T cells (human) (UniProt P78380); experiment: flow cytometry, 1 ug/ml antibody on hLOX-1 transfected 293T cells, FITC goat anti-human IgG

B1: anti-hLOX-1 monoclonal antibody 6A10 (hybridoma) (antibody, IgM, V domains shown)
VH: EVQLQQSGPELVKPGASVKISCKASGYSFTGYYMHWVKQSHVKSLEWIGRINPYNGATSYNQNFKDKASLTVDKSSSTAYMELHSLTSEDSAVYYCAPDVAYWGQGTLVTVSA
VL: DIKMTQSPSSMYASLGERVTITCKASQDINSYLSWFQQKPGKSPKTLIYRANRLVDGVPSRFSGSGSGQDYSLTISSLEYEDMGIYYCLQYDEFPPWTFGGGTKLEIK
Q: How did the binding [1] turn out when B1 was run?
A: binds

Q: What about the binding [2] of the same binder?
A: binds

Q: What about the binding [3] of the same binder?
A: binds

B2: recombinantly expressed anti-LOX-1 (IgG1) antibody, clone 6A10 (antibody, V domains shown)
VH: EVQLQQSGPELVKPGASVKISCKASGYSFTGYYMHWVKQSHVKSLEWIGRINPYNGATSYNQNFKDKASLTVDKSSSTAYMELHSLTSEDSAVYYCAPDVAYWGQGTLVTVSA
VL: DIKMTQSPSSMYASLGERVTITCKASQDINSYLSWFQQKPGKSPKTLIYRANRLVDGVPSRFSGSGSGQDYSLTISSLEYEDMGIYYCLQYDEFPPWTFGGGTKLEIK
Q: Which binding [4] does the source give for B2 here?
A: binds

B3: anti-hLOX-1 monoclonal antibody 12D9 (hybridoma) (antibody, IgM, V domains shown)
VH: QIQLVQSGPELKKPGETVKISCKASGYTFTNYGMNWVKQTPGKGLKWMGWINTYTGEPTYTDDFKGRFAFSLETSASTASLQIINLKNEDTATYFCARGGDFYAMDYWGQGTSVTVSS
VL: NIVMTQSPKSMSMSVGERVTLSCKASENVGTYVSWYQQKPEQSPKLVIFGASNRNTGVPDRFTGSGFATDFTLTISSVQAEDLGDYHCGQSSNYPYTFGGGTKLEIK
Q: With B3 as the binder, how does the binding [1] read?
A: binds

Q: And the binding [2]?
A: binds

Q: What about the binding [3] of the same binder?
A: binds
